PubChem BioAssay AID1159584 – Peter MacCallum Cancer Centre, 2016
Purpose: 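Genes whose loss is lethal only together with E-cadherin loss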 (primary screen). System: human MCF10A breast epithelial cells, parental and CDH1-null. Reagent: siRNA against human genes. Measured: 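Cell viability by CellTiter-Glo ATP luminescence, each line scaled to the mean of mock wells across plates, then CDH1-null over parental ratio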. Direction: CDH1-null / parental viability ratio: higher = CDH1-null cells survive relatively better than parental.
The deposit covers about 18,000 reagents; this is a random part of them. Not all columns of the deposit are shown. The record does not give: the amount of reagent, the time to read-out.

RASA3 (RAS p21 protein activator 3) | CDH1-null / parental viability ratio = 0.77
OR2T27 (olfactory receptor family 2 subfamily T member 27) | CDH1-null / parental viability ratio = 1.13
ACSS2 (acyl-CoA synthetase short chain family member 2) | CDH1-null / parental viability ratio = 1.06
LRRC45 (leucine rich repeat containing 45) | CDH1-null / parental viability ratio = 0.74
ESAM (endothelial cell adhesion molecule) | CDH1-null / parental viability ratio = 1.14
TTYH3 (tweety family member 3) | CDH1-null / parental viability ratio = 1.18
MAT2A (methionine adenosyltransferase 2A) | CDH1-null / parental viability ratio = 1.94
FN3K (fructosamine 3 kinase) | CDH1-null / parental viability ratio = 0.89
PSMC3 (proteasome 26S subunit, ATPase 3) | CDH1-null / parental viability ratio = 1.12
SPATC1L (spermatogenesis and centriole associated 1 like) | CDH1-null / parental viability ratio = 1.02
SCAP (SREBF chaperone) | CDH1-null / parental viability ratio = 0.96
PBXIP1 (PBX homeobox interacting protein 1) | CDH1-null / parental viability ratio = 0.87
SH3BGR (SH3 domain binding glutamate rich protein) | CDH1-null / parental viability ratio = 1.17
PKLR (pyruvate kinase L/R) | CDH1-null / parental viability ratio = 1.05
NUDT10 (nudix hydrolase 10) | CDH1-null / parental viability ratio = 0.58
CHEK1 (checkpoint kinase 1) | CDH1-null / parental viability ratio = 0.98
CEP85L (centrosomal protein 85L) | CDH1-null / parental viability ratio = 1.04
NCAPD2 (non-SMC condensin I complex subunit D2) | CDH1-null / parental viability ratio = 1.11
IL36G (interleukin 36 gamma) | CDH1-null / parental viability ratio = 1.23
AFG2B (AAA ATPase AFG2B) | CDH1-null / parental viability ratio = 1.02
TXNDC16 (thioredoxin domain containing 16) | CDH1-null / parental viability ratio = 1
TYR (tyrosinase) | CDH1-null / parental viability ratio = 1.76
H2AB2 (H2A.B variant histone 2) | CDH1-null / parental viability ratio = 0.98
ZW10 (zw10 kinetochore protein) | CDH1-null / parental viability ratio = 0.68
